# Results of single-concentration screens

Each number is a percent effect as filed.
The controls that fix the scale are not given in the record; negative values are as filed.
The compounds are a random part of those screened.

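Whole-cell growth test on Mycobacterium tuberculosis, read after 4 days in a medium based on cholesterol and the lipid DPPC; the read-out is not stated. Concentration: 500 µM. Direction is inferred from retests: higher values go with more growth inhibition. Of about 18,000 compounds tested this way, about 900 (5%) reached 50% or more in at least one test.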

structure	percent effect
COc1cc(N2CCNCC2)ncn1	1.301
CCNC(=O)C1CN(C(=O)C(O)c2ccc(Br)cc2)C1 (stereo not drawn)	1.416
CCc1ccsc1C(=O)NCCC(=O)N(C)C	-13.55
C[C@H](N)c1cccs1	1.756
Cn1c(SC2CCCCNC2=O)nc2sccc2c1=O (stereo not drawn)	-6.781
Cc1cc(C)nc(N2CCN(S(C)(=O)=O)CC2)n1	-19.93
CS(=O)(=O)c1cnc(N)c(Cl)c1	-29.2
Cn1cc(C#N)cc1C(=O)NCC[C@@H]1CCCN1	10.87
CN(C)C(=O)CSCCCNc1ncccn1	4.789
O=C1OCCC12CCNC2 (stereo not drawn)	-4.936
CC(C)n1cncc1CN1CCN(CCO)CC1	-9.614
CC1(C)CC(C(=O)NCCNc2cccnc2)CCO1 (stereo not drawn)	6.412
CC(Oc1ccccc1C#N)C(=O)N(C)C (stereo not drawn)	1.658
CCOc1ncnc2c1CN(CCOC)CC2	-9.094
O=C(Cc1noc2ccccc12)OC1CCOC1=O (stereo not drawn)	3.974
CCNC(=O)CCSc1nnc(-c2ccc(O)cc2)o1	36.21
CCC(CN)N1CCc2ccccc2C1 (stereo not drawn)	0.783
CCc1noc(C)c1C(=O)NCCN(C)C	1.765
CSc1ccc(OCCn2cnnc2[S+](C)[O-])cc1 (stereo not drawn)	28.17
COc1ccccc1OCCN(C)CC(N)=O	-1.363
Cc1cc(C)cc(C(=O)N2CCCC(O)C2)c1 (stereo not drawn)	13.48
COC(CN)Cc1ccccc1 (stereo not drawn)	-11.69
CN1CCCC(CCO)C1 (stereo not drawn)	3.286
NC(CO)c1cccc(F)c1 (stereo not drawn)	-16.3
O=C(CCS(=O)(=O)c1ccccc1)Nc1ccccn1	0.2012
CC(=O)c1cccc(C(=O)NC(C)c2nc(C)c[nH]2)c1 (stereo not drawn)	-12.32
Cc1ccsc1CN(C)C(=O)c1ccc(=O)n(C)n1	-1.34
CCOCCS(=O)(=O)Cc1cccc(OC)c1	25.98
CSc1ccc2c(c1)CCN(C(=O)C1CCNC1)C2 (stereo not drawn)	43.04
CSCCC(C)(N)C#N (stereo not drawn)	10.82
CNCc1nc2ccccc2n1CCO	7.206
CCc1nccn1-c1ccc(CNC(C)=O)cc1	-0.7199
CSCCCNC(=O)c1ccc(CN(C)C)o1	2.619
CN(C)CCCNC1=NS(=O)(=O)c2ccccc21	6.388
CCNC(=O)CC1CCCCN1 (stereo not drawn)	-24.44
OC1(c2ccccc2Cl)CCNCC1	10.05
CN1CC(NC(=O)COc2cccnc2)CCC1=O (stereo not drawn)	-12.25
CC(C)c1cc(N)n(C(C)C)n1	1.024
Cc1ccc(CNC(=O)C2CCCN(C(N)=O)C2)s1 (stereo not drawn)	43.8
NCC(c1ccco1)N1CCCCC1 (stereo not drawn)	6.904
Cc1cccc(OC(F)F)c1NC(=O)N(C)CCO	-9.62
C[C@@H]1C[C@@H](N)c2ccccc2O1	38.42
Cn1nnnc1SCCNC(=O)c1cc(Cl)ccc1F	5.087
COCC(=O)N[C@H]1CC[C@H](N)CC1	-1.993
CCS(=O)(=O)NCCNCc1ccc(Cl)cc1F	-6.665
CO[C@H]1[C@@H]2CC[C@H]1CN(C(=O)c1nc(C)c[nH]1)C2	-7.887
COCCCOc1cc(C)ccc1CN	34.57
CC(=O)c1cc(CN2CC(N3CCOCC3)C2)cs1	1.989
O=C(NCCc1noc(C(F)(F)F)n1)c1ccnnc1	14.72
O=C1CCN(Cc2ccccc2)C2(CC2)C1	14.51
O=C(CC1Sc2ccc(Cl)cc2NC1=O)OCCO (stereo not drawn)	108.5
CC(=O)NCCCN1CCN(c2ccccc2F)CC1	0.7338
CC(C)NC(=O)CN1c2cc(Cl)ccc2CS1(=O)=O	8.306
COc1cc(S(=O)(=O)NCc2ccnn2C)ccc1F	7.06
Cc1cccc2c1OCCC2N (stereo not drawn)	8.446
Cc1nnsc1C(=O)Nc1ccccn1	16.47
CCC(NC(=O)CCCN1CCCC1)c1ccnn1C (stereo not drawn)	7.061
Cc1nc2ccc(C(=O)NC3C=CS(=O)(=O)C3)cc2o1 (stereo not drawn)	0.9052
CC(=O)c1csc(C)c1	4.011
CN1CCC(NC(=O)c2coc(Br)c2)CC1=O (stereo not drawn)	-5.592
COC1CCC(CCN)CC1 (stereo not drawn)	0.5163
C[C@H](N)c1ccc(F)cc1OC(F)F	10.12
CCn1ncnc1CN1C[C@H]2CC[C@@H](C1)[C@H]2N(C)C	-1.002
Cc1cc(C(=O)NCc2cccc(F)c2)no1	53.84
Cc1ncc2c(n1)CCN(Cc1ncc(Cl)n1C)C2	-35.96
Cc1cccc(C)c1NC(=O)C1CCS(=O)(=O)C1 (stereo not drawn)	-5.082
Cc1ccc(CNC(=O)c2ccc(S(C)(=O)=O)cc2)s1	-7.562
c1ccc(OCCCOC2CNC2)cc1	50.42
CC1(CCCO)CCCN1 (stereo not drawn)	7.094
CN1CCC(CNC(=O)CCc2ccccc2O)C1 (stereo not drawn)	8.861
NCCCn1cc(CO)nn1	5.321
Cc1ccc(I)c(C(=O)NCCCC(N)=O)c1	2.046

Source: ChEMBL document CHEMBL3988442, “University of Dundee, Small-Polar-MMV Screening Library” (2021).